Assay [1] concerns the target T1, FLAG-tagged mouse HIGD1C (HIGD1C-Myc-DDK) (mouse) (UniProt Q76I25).
T1 sequence: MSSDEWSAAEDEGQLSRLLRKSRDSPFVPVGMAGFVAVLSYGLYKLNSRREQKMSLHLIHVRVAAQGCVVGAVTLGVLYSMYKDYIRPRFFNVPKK
The assay can be described thus: co-IP.

Sequences of proteins named here, by UniProt entry; tags and fusion partners are left off.
UniProt P99999: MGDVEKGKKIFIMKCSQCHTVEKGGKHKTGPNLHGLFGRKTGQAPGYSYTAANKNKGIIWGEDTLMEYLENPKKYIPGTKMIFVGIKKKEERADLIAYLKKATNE

Assay [2] concerns the target T2, FLAG-tagged human HIGD1C (HIGD1C-Myc-DDK) (human) (UniProt A8MV81).
T2 sequence: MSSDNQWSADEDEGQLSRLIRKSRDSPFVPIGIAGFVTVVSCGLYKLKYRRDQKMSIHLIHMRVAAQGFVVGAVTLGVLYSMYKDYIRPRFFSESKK
The assay can be described thus: co-IP.

Drawing on doi:10.1101/2021.10.04.463079, this text covers binding for one substance.

No constants are given. Whether binding was seen depends on the method and setting. In cells and extracts the contact can be indirect. Some entries that bind do so weakly or less than the wild type. Where a sequence is shown, tags or fusion partners need not be part of it.

Regarding “cytochrome c (from UniProt P99999 1-105)”, the binding entry in assay [1] and in assay [2] was “binds” in each case.
